# Plain letter strings leave the end groups untold.
# What was measured:
# [1] = general procedure: Fmoc solid-phase peptide synthesis; Fmoc-Leu-Wang; details: whole synthesis, TFA salt
# [2] = general procedure: Fmoc solid-phase peptide synthesis; preloaded Fmoc-amino acid-Wang resin; details: whole synthesis, trifluoroacetic acid salt
# [3] = general procedure: Fmoc solid-phase peptide synthesis; Fmoc-Arg(Pbf)-Wang; details: whole synthesis, scale 0.5 mmol, TFA salt
# [4] = general procedure: Fmoc solid-phase peptide synthesis; Fmoc-Val-Wang; details: whole synthesis, scale 0.22 mmol, TFA salt
# [5] = general procedure: Fmoc solid-phase peptide synthesis; Fmoc-Thr(tBu)-Wang; details: whole synthesis, scale 0.5 mmol, TFA salt
Substance,isolated mass ([1]; scale 0.25 mmol) [mg],final HPLC purity [2] [%],isolated yield [2] [%],isolated mass [3] [mg],isolated mass ([1]; scale 0.5 mmol) [mg],isolated mass [4] [mg],isolated mass ([1]; scale 0.21 mmol) [mg],isolated mass [5] [mg]
C(Npys)SIIVFEKL,256.0,>94,88,–,–,–,–,–
CISQAVHAAHAEINEAGR,–,>95,33,305,–,–,–,–
CKGPRNQDWL,–,>95,65,–,392.8,–,–,–
CKVPRNQDWL,–,>95,56,–,349.5,–,–,–
CLGGLLTMV,–,>99,50,–,–,99.4,–,–
CSIINFEKL,–,>95,88,–,470,–,–,–
CSIITFEKL,–,>95,27,–,142.2,–,–,–
CVLDGLDVLL,–,>92,11,–,–,–,23.4,–
CYMLDLQPETT,–,>99,18,–,–,–,–,121.4

# — patent publication US20220175955A1 (Torque Therapeutics Inc., priority 2018, published 2022)
